# Experimental data reported in the supplement of paper PMC9744312.
# Structures can show the parent of a compound that is named as a salt. The list shows a part of the results. The data scatter; read single values as rough.
# Tested on: Peyronie's disease tunica albuginea primary fibroblasts
# Test: inhibition of TGF-beta1-induced alpha-SMA expression (myofibroblast transformation), relative to TGF-beta1-only and untreated controls; higher = stronger inhibition of myofibroblast transformation
# Conditions: 10 µM; TGF-beta1 10 ng/mL; 72 h
row,SMILES,inhibition of TGF-beta1-induced alpha-SMA expression [%]
1,Nc1ccc(/N=N/c2ccccc2)c(N)n1 [Phenazopyridine HCl],-21.4
2,CCC(=O)O[C@]1(C(=O)SCF)[C@H](C)C[C@H]2[C@@H]3C[C@H](F)C4=CC(=O)C=C[C@]4(C)[C@@]3(F)[C@@H](O)C[C@@]21C [Fluticasone propionate],70.2
3,CN1CCC(=C2c3ccccc3CCn3c(C=O)cnc32)CC1 [Alcaftadine],28.5
4,Nc1nc(/C(=C/CC(=O)O)C(=O)N[C@@H]2C(=O)N3C(C(=O)O)=CCS[C@H]23)cs1 [Ceftibuten dihydrate],0.591
5,CC(C)[C@H](O)C(=O)N[C@@H](C)C(=O)N[C@@H]1C(=O)N(C)CCc2ccccc21,-327
6,Cc1cn(-c2cc(NC(=O)c3ccc(C)c(Nc4nccc(-c5cnccn5)n4)c3)cc(C(F)(F)F)c2)cn1 [Radotinib],21.6
7,CCc1nn(CCCN2CCN(c3cccc(Cl)c3)CC2)c(=O)n1CCOc1ccccc1 [Nefazodone hydrochloride],14.6
8,"O=C(c1ccc(F)c(F)c1Nc1ccc(I)cc1F)N1CC(O)([C@@H]2CCCCN2)C1 [Cobimetinib (GDC-0973, RG7420)]",-45.9
9,O=S(=O)(c1cccc2cnccc12)N1CCCNCC1 [Fasudil (HA-1077) HCl],-28.3
10,CC(NCCc1ccc(O)cc1)C(O)c1ccc(O)cc1 (configuration not stated) [Ritodrine HCl],12.3
11,C[N+](C)(CCOc1ccccc1)Cc1ccccc1.O=C([O-])c1cc2ccccc2cc1O [Bephenium Hydroxynaphthoate],-0.471
12,"C[C@H](Nc1ncnc2nc[nH]c12)c1cc2cccc(Cl)c2c(=O)n1-c1ccccc1 [Duvelisib (IPI-145, INK1197)]",7.73
13,CCC1(C)CC(=O)NC1=O (configuration not stated) [Ethosuximide],-3.75
14,O=[N+]([O-])c1ccc(O)c2ncccc12 [Nitroxoline],62.1
15,N#CC[C@H](C1CCCC1)n1cc(-c2ncnc3[nH]ccc23)cn1,-8.86
16,N#CC[C@H](C1CCCC1)n1cc(-c2ncnc3[nH]ccc23)cn1 [Ruxolitinib Phosphate],-3.46
17,CCCc1nn(C)c2c(=O)[nH]c(-c3cc(S(=O)(=O)N4CCN(C)CC4)ccc3OCC)nc12 [Sildenafil],93.1
18,CCCc1nn(C)c2c(=O)[nH]c(-c3cc(S(=O)(=O)N4CCN(C)CC4)ccc3OCC)nc12 [Sildenafil Mesylate],22.4
19,CCCc1nn(C)c2c(=O)[nH]c(-c3cc(S(=O)(=O)N4CCN(C)CC4)ccc3OCC)nc12 [Sildenafil Citrate],21.9
20,NNC(=O)c1ccncc1.Nc1ccc(C(=O)O)c(O)c1 [Pasiniazid],0.473
21,CCC(C)(C)C(=O)O[C@H]1C[C@@H](C)C=C2C=C[C@H](C)[C@H](CC[C@@H]3C[C@@H](O)CC(=O)O3)[C@H]21 [Simvastatin],11.6
22,CCNC1(C(N)=O)CCN(c2ncnc3c2nc(-c2ccccc2Cl)n3-c2ccc(Cl)cc2)CC1,32.7
23,CCOC(=O)CC(=O)N1CCSC1COc1ccccc1OC (configuration not stated) [Moguisteine],19.1

row,SMILES,inhibition of TGF-beta1-induced alpha-SMA expression [%]
1,CC(=O)Oc1ccc(C(c2ccc(OC(C)=O)cc2)c2ccccn2)cc1 [Bisacodyl],39
2,O=C(O)CCC(=O)c1ccc(-c2ccccc2)cc1 [Fenbufen],-16
3,CCCCCCCCOc1ccccc1C(=O)Nc1ccc(C(=O)OCC[N+](C)(CC)CC)cc1 [Otilonium Bromide],11.4
4,CN1CCN2c3ccccc3Cc3ccccc3C2C1 (configuration not stated) [Mianserin HCl],-9.38
5,CCCCc1ncc(/C=C(\Cc2cccs2)C(=O)O)n1Cc1ccc(C(=O)O)cc1 [Eprosartan Mesylate],-12.7
6,CN(C)CCc1c[nH]c2ccc(CS(=O)(=O)N3CCCC3)cc12 [Almotriptan Malate],10.3
7,CC(C)C[C@H](NC(=O)[C@@H](Cc1cccc2ccccc12)NC(=O)[C@H](Cc1ccc(O)cc1)NC(=O)[C@H](CO)NC(=O)[C@H](Cc1c[nH]c2ccccc12)NC(=O)[C@H](Cc1cnc[nH]1)NC(=O)[C@@H]1CCC(=O)N1)C(=O)N[C@@H](CCCNC(=N)N)C(=O)N1CCC[C@H]1C(=O)NCC(N)=O [Nafarelin Acetate],-3.54
8,O=C(NC(Cc1cc(=O)[nH]c2ccccc12)C(=O)O)c1ccc(Cl)cc1 (configuration not stated) [Rebamipide],7.42
9,C[N+](C)(C)CCOC(N)=O [Carbachol],34.1
10,COC(=O)/C=C/C(=O)OC [Dimethyl Fumarate],25.4
11,CCOC(=O)C1=C(C)NC(C)=C(C(=O)OC)C1c1cccc(Cl)c1Cl (configuration not stated) [Felodipine],-3.85
12,CO[C@H]1C[C@H](O[C@@H]2/C(C)=C/C[C@@H]3C[C@@H](C[C@]4(CC[C@H](C)[C@@H](C5CCCCC5)O4)O3)OC(=O)[C@@H]3C=C(C)/C(=N/O)[C@H]4OC/C(=C\C=C\[C@@H]2C)[C@]43O)O[C@@H](C)[C@@H]1O [Selamectin],3.85
13,C[C@H](CCC(=O)O)[C@H]1CC[C@H]2[C@@H]3C(=O)C[C@@H]4CC(=O)CC[C@]4(C)[C@H]3CC(=O)[C@]12C [Dehydrocholic acid],18.4
14,O=C1c2c(O)ccc(O)c2C(=O)c2c(NCCNCCO)ccc(NCCNCCO)c21 [Mitoxantrone 2HCl],> 100
15,Cc1ccc(Nc2nccc(N(C)c3ccc4c(C)n(C)nc4c3)n2)cc1S(N)(=O)=O,-16.4
16,Cc1ccc(Nc2nccc(N(C)c3ccc4c(C)n(C)nc4c3)n2)cc1S(N)(=O)=O [Pazopanib],29.5
17,CCCCC(=O)N(Cc1ccc(-c2ccccc2-c2nnn[nH]2)cc1)[C@H](C(=O)O)C(C)C [Valsartan],17.8
18,COc1cc(Nc2ncc3c(n2)-c2ccc(Cl)cc2C(c2c(F)cccc2OC)=NC3)ccc1C(=O)O [Alisertib (MLN8237)],-63.2
19,CCOC(CN1CCN(CC(C)C(=O)c2ccccc2)CC1)c1ccccc1 (configuration not stated) [Eprazinone 2HCl],24.6
20,OCC(CO)N[C@H]1C[C@](O)(CO)[C@@H](O)[C@H](O)[C@H]1O [Voglibose],-13.9
21,COc1ccc(C[C@@H](C)NC[C@H](O)c2ccc(O)c(NC=O)c2)cc1 [Arformoterol Tartrate],16.5
22,"Cc1c(C(=O)Nc2ccc(N3C[C@@H](C)O[C@@H](C)C3)nc2)cccc1-c1ccc(OC(F)(F)F)cc1 [Sonidegib (Erismodegib, NVP-LDE225)]",34.6
23,O=C1c2cccc(O)c2C(=O)c2c(O)cccc21 [Danthron],12.3

# Already shown: an excerpt of the list.
row,SMILES,inhibition of TGF-beta1-induced alpha-SMA expression [%]
17,CCCc1nn(C)c2c(=O)[nH]c(-c3cc(S(=O)(=O)N4CCN(C)CC4)ccc3OCC)nc12 [Sildenafil],93.1
18,CCCc1nn(C)c2c(=O)[nH]c(-c3cc(S(=O)(=O)N4CCN(C)CC4)ccc3OCC)nc12 [Sildenafil Mesylate],22.4
19,CCCc1nn(C)c2c(=O)[nH]c(-c3cc(S(=O)(=O)N4CCN(C)CC4)ccc3OCC)nc12 [Sildenafil Citrate],21.9

# Going on with the list:

row,SMILES,inhibition of TGF-beta1-induced alpha-SMA expression [%]
1,CCOC(N)=O [Urethane],-23.5
2,CC12CC3CC(C)(C1)CC(N)(C3)C2 [Memantine HCl],9.81
3,CN1C(C(=O)Nc2ccccn2)=C(O)c2sc(Cl)cc2S1(=O)=O [Lornoxicam],3.24
4,CC(C)c1nc(CN(C)C(=O)N[C@@H](CCN2CCOCC2)C(=O)N[C@H](CC[C@H](Cc2ccccc2)NC(=O)OCc2cncs2)Cc2ccccc2)cs1 [Cobicistat (GS-9350)],-15.8
5,Cc1cccc(-c2nn3c(c2-c2ccnc4ccc(C(N)=O)cc24)CCC3)n1,> 100
6,O=c1cc[nH]c(=O)[nH]1 [Uracil],19
7,CCOC(=O)N1c2ccc(C(F)(F)F)cc2[C@@H](N(Cc2cc(C(F)(F)F)cc(C(F)(F)F)c2)C(=O)OC)C[C@H]1CC [Torcetrapib],-8.78
8,CCC[C@@H]1C[C@@H](C(=O)N[C@@H]([C@H]2O[C@H](SC)[C@H](O)[C@@H](O)[C@H]2O)[C@@H](C)O)N(C)C1 [Lincomycin Hydrochloride Monohydrate],-6.71
9,CCC[C@@H]1C[C@@H](C(=O)N[C@@H]([C@H]2O[C@H](SC)[C@H](O)[C@@H](O)[C@H]2O)[C@@H](C)O)N(C)C1 [Lincomycin HCl],6.85
10,CO[C@H]1C[C@@H]2CC[C@@H](C)[C@@](O)(O2)C(=O)C(=O)N2CCCC[C@H]2C(=O)O[C@H]([C@H](C)C[C@@H]2CC[C@@H](OC(=O)C(C)(CO)CO)[C@H](OC)C2)CC(=O)[C@H](C)/C=C(\C)[C@@H](O)[C@@H](OC)C(=O)[C@H](C)C[C@H](C)/C=C/C=C/C=C/1C,-19.2
11,CN1CCCN=C1/C=C/c1cccs1 [Pyrantel Pamoate],21.3
12,NNC(=O)c1ccncc1 [Isoniazid],22
13,C[C@H]1C[C@H]2[C@@H]3CCC4=CC(=O)C=C[C@]4(C)[C@H]3C(=O)C[C@]2(C)[C@@]1(O)C(=O)CO [Meprednisone],55.4
14,CCC(=O)OCC(=O)[C@@]1(OC(=O)CC)[C@@H](C)C[C@H]2[C@@H]3CCC4=CC(=O)C=C[C@]4(C)[C@@]3(F)[C@@H](O)C[C@@]21C [Betamethasone Dipropionate],57.7
15,O=C(O)CCCN1CCC(O[C@@H](c2ccc(Cl)cc2)c2ccccn2)CC1 [Bepotastine Besilate],12.8
16,O=C(O)c1cccnc1 [Nicotinic Acid],26.6
17,CCCCc1oc2ccccc2c1C(=O)c1cc(I)c(OCCN(CC)CC)c(I)c1 [Amiodarone HCl],47.7
18,Cc1cnc(C(=O)N[C@H]2CCCCC/C=C\[C@@H]3C[C@@]3(C(=O)NS(=O)(=O)C3CC3)NC(=O)[C@@H]3C[C@@H](Oc4nc5ccccc5c5ccccc45)CN3C2=O)cn1 [Paritaprevir (ABT-450)],26
19,O=c1[nH]c(=O)n([C@H]2C[C@H](O)[C@@H](CO)O2)cc1I [Idoxuridine],8.32
20,"CN1CCN(c2ccc3nc(-c4c(N)c5c(F)cccc5[nH]c4=O)[nH]c3c2)CC1 [Dovitinib (TKI-258, CHIR-258)]",-10.9
21,CN1CCN(c2ccc3nc(-c4c(N)c5c(F)cccc5[nH]c4=O)[nH]c3c2)CC1 [Dovitinib (TKI258) Lactate],77.3
